# This is one part of the list. Hit calls seldom repeat between salt and free forms of one compound.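 In K562 cells expressing nanoluciferase-fused kinases, luminescence was recorded at 4 h intervals between 2 and 18 h, normalized as percent of control with DMSO at 100% and a positive control at 0%. A significant (2 sigma) signal drop marks a time point as decreased. The authors' rule for a hit is not shown and takes in more than the number of time points.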
# Protein sequences, listed by entry. Tags and fused reporters are not part of them. Lines headed by an entry give the natural chain unless they say otherwise; changes in a name come on top.
# UniProt Q13555: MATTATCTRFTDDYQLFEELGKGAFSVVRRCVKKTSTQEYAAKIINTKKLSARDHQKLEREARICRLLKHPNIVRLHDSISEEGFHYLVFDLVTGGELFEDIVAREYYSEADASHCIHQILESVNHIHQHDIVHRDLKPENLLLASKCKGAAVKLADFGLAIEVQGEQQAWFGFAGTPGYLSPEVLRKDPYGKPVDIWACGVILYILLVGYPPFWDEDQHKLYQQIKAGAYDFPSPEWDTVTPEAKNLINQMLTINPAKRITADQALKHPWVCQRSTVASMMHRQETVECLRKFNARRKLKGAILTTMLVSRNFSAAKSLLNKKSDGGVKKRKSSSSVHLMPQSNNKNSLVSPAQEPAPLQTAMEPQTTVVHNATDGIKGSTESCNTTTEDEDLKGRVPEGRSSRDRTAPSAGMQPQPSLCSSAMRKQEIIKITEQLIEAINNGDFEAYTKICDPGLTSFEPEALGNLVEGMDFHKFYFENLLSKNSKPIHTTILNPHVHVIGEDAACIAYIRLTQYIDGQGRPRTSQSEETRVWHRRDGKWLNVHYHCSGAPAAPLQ
# Target: CAMK2G (UniProt Q13555)
# Assay: kinase-Nluc reporter destabilization hit call (1 = scored as downregulated) (binary); higher = compound decreases kinase abundance
# Settings: K562; 2-18 h
row,Structure (SMILES),kinase-Nluc reporter destabilization hit call
1,C/C(O)=C(\C#N)C(=O)Nc1cc(Br)ccc1Br (10 µM),inactive: 0
2,COc1ccc2c(c[n+](C)c3c4cc5c(cc4ccc23)OCO5)c1OC [Chelerythrine (chloride)] (10 µM),active: 1
3,COc1ccc2c(c1)[nH]c1c(C)nccc12 [Harmine] (10 µM),inactive: 0
4,CCCCCCCCCCCCCCCCOC[C@H](COP(=O)([O-])OCC[N+](C)(C)C)OC(C)=O (10 µM),inactive: 0
5,O=C(O)c1sc2cc(Cl)ccc2c1Cl (10 µM),inactive: 0
6,C[S+]([O-])/C=C/CCN=C=S (configuration not stated) [Sulforaphene] (10 µM),inactive: 0
7,Cn1cc(C2=C(c3cn(C4CCN(Cc5ccccn5)CC4)c4ccccc34)C(=O)NC2=O)c2ccccc21 [Enzastaurin] (10 µM),inactive: 0
8,CCN1CCN(C(=O)Cc2ccc(Nc3ncc(F)c(Nc4ccc(C(=O)Nc5ccccc5Cl)cc4)n3)cc2)CC1 (2.5 µM),inactive: 0
9,Cc1n[nH]cc1-c1cc2nc([C@@H]3CC4CCN3CC4)[nH]c(=O)c2s1 [Simurosertib] (2.5 µM),inactive: 0
10,O=C(N[C@@H](COc1ccc2[nH]c(=O)[nH]c2c1)c1ccccc1)c1cccn(Cc2ccc(F)c(F)c2)c1=O (2.5 µM),inactive: 0
11,CCOC(=O)c1c(/C(C#N)=C\N)c2ccc(Cl)c(Cl)c2n1C (10 µM),inactive: 0
12,C[C@H](CCC(=O)O)C[C@H](C)C[C@H](C)C(=O)/C=C(\O)[C@H](C)C[C@H](C)C/C=C/[C@@H](C)[C@@H](O)[C@@H](C)[C@@H](O)C[C@@H]1CC[C@@](C)([C@H]2CC[C@@](C)([C@@H](C)O)O2)O1 [Ionomycin (calcium)] (2.5 µM),inactive: 0

# An excerpt of these results, with bars between the fields:
row | Structure (SMILES) | kinase-Nluc reporter destabilization hit call
11 | CCOC(=O)c1c(/C(C#N)=C\N)c2ccc(Cl)c(Cl)c2n1C (10 µM) | inactive: 0
12 | C[C@H](CCC(=O)O)C[C@H](C)C[C@H](C)C(=O)/C=C(\O)[C@H](C)C[C@H](C)C/C=C/[C@@H](C)[C@@H](O)[C@@H](C)[C@@H](O)C[C@@H]1CC[C@@](C)([C@H]2CC[C@@](C)([C@@H](C)O)O2)O1 [Ionomycin (calcium)] (2.5 µM) | inactive: 0

# Reference: the supplement of paper PMC12823440, “Inhibitors supercharge kinase turnover through native proteolytic circuits” (Nature, 2025)
